Source: publication PMC11090944
Results are given in words; binding and its absence hold for the method and conditions named. Binding seen in cells or lysates may run through a third protein. Some results given as binding are weak or reduced against the parent protein; the word gives no strength.

Protein sequences, listed by entry. Tags and fused reporters are not part of them.
UniProt P46937: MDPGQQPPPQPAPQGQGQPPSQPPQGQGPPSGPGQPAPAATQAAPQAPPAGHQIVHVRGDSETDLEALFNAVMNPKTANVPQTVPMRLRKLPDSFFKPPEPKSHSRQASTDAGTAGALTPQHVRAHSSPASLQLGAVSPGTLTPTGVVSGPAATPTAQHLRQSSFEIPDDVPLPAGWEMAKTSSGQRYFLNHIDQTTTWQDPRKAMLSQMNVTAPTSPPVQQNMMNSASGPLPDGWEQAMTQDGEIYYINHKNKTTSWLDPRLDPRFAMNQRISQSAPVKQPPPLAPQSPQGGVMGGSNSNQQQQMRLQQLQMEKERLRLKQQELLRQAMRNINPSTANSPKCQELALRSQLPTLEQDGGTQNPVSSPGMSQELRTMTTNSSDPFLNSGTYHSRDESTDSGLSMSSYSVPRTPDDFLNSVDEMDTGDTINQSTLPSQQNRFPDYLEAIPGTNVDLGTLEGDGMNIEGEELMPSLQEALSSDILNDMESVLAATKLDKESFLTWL

Columns and labels:
[1] = target: T1, Cancer/testis antigen-45A1 (CT45A1) (human) (UniProt Q5HYN5); test: pull-down; pull-down assay (Fig. 6K); format not told
T1 sequence: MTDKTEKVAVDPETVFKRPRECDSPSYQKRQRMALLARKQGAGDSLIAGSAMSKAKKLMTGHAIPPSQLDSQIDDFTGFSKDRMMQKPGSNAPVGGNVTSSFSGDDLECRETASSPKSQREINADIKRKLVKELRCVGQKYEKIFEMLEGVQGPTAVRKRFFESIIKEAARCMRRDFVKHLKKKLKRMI

[2] = target: T1, Cancer/testis antigen-45A1 (CT45A1) (human); test: co-IP; 400 ul cervical cancer cell lysate with primary monoclonal antibody (1:500) or normal IgG at 4 C for 4 h, then magnetic A/G beads at 4 C overnight; detection by western blotting

binding [1]: binds | binding [2]: binds
Substance: Yes-associated protein (YAP) (from UniProt P46937 1-504)
